# Most values lie at the floor of the assay. Slopes are relative: functional sequences can read slightly below zero.
# System: Saccharomyces cerevisiae PS128 hsf1 delta, HSF1(1-493) fusion
# Assay: growth estimate (transactivation domain function in HSF1 fusion, heat-shock survival) (a.u. (slope of normalised read count over time)); higher = stronger growth at 37°C, i.e. more transactivation activity
# Details: library: random library
# Protocol: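 Random 60-nt DNA library encoding peptides of up to 20 aa, fused to the C-terminus of yeast HSF1 residues 1-493 (C-terminal TAD deleted) and expressed from the native HSF1 promoter on a CEN plasmid in hsf1-deleted S. cerevisiae PS128. Cells were selected at 37°C on -trp 5-FOA plates for 0, 2, 4, 6 and 8 days and amplicons were sequenced. Growth estimate is the slope of a robust linear fit of total-sum-normalised read counts (normalised to the first time point) over time, using at least 2 replicates. Sequences are classed functional (TAD activity) above a threshold of -0.13, set from stop-codon control sequences.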
row,Substance,growth estimate
1,AAAHLTVPTSSYLTRRLAGS,< -0.25
2,AAARGRSHPLSSTDVSGWKT,< -0.25
3,AAARSWWTSHRAVSSKSCDA,< -0.25
4,AACRGGAGKSPPDHPVAEFS,< -0.25
5,AADG,< -0.25
6,AADHVGYLYWSALRGYARPY,< -0.25
7,AADRSCPCVWAPLPDLRG,< -0.25
8,AAGIQPAVKCLRPCYASLRP,< -0.25
9,AAGSC,< -0.25
10,AAKGLGAESVIIWVSVRSTR,< -0.25
11,AALDTRVALRDMRQNMWFIC,< -0.25
12,AALMSTDLGSRRFRLPEVHV,< -0.25
13,AALYSGGRQVTL,< -0.25
14,AANARACVVHN,< -0.25
15,AANGMMF,< -0.25
16,AAPGSESLRREQTLRDRSVG,< -0.25
17,AAPHNN,< -0.25
18,AAPLKMHLVTSLPLNAYGIA,< -0.25
19,AAR,< -0.25
20,AARLSAACCRVITGDVS,< -0.25
21,AASCSG,< -0.25
22,AASFDQEQ,< -0.25
23,AASGY,< -0.25
24,AASSTPFYDIQE,< -0.25

# Three entries picked at random from those above, as already listed:
row,Substance,growth estimate
4,AACRGGAGKSPPDHPVAEFS,< -0.25
5,AADG,< -0.25
15,AANGMMF,< -0.25

# Taken from above.
# growth estimate with AASFDQEQ reads < -0.25
# growth estimate with AANARACVVHN reads < -0.25
# growth estimate with AALDTRVALRDMRQNMWFIC reads < -0.25

# (cont.)

row,Substance,growth estimate
1,AASVLPCGR,< -0.25
2,AAVHYEDQLPPGRAESLIRG,< -0.25
3,AAVRDL,< -0.25
4,ACCKPAETESLKLDATGSLE,< -0.25
5,ACCPLVEEMTHILKLQESRQ,< -0.25
6,ACGAWPTRSG,< -0.25
7,ACGGSSG,< -0.25
8,ACIPAFNVLIGWTVRRSHMG,< -0.25
9,ACIQVQPSLTCGLGVPAYP,< -0.25
10,ACIVITGPS,< -0.25
11,ACKYHYRGC,0.0973
12,ACL,< -0.25
13,ACNLRCRWGLRTESLLRWRM,< -0.25
14,ACPQS,< -0.25
15,ACQASRV,< -0.25
16,ACRVVCRYGSGGCSSPVSHG,< -0.25
17,ACSLILTVDAIVRGYVIFRR,< -0.25
18,ACSQSDQASKKASSPLKRRP,< -0.25
19,ACSRLVVA,< -0.25
20,ACVERGFRRMYRVEGSRKRD,< -0.25
21,ADAGVRSYYSRRVGRCRRLP,< -0.25
22,ADCARTRSAFS,< -0.25
23,ADDIGLDLAYRSLLSVRNKA,< -0.25
24,ADDQKSRSSWPPGSPALHHG,< -0.25

row,Substance,growth estimate
1,ADFDAGSGDCE,< -0.25
2,ADFRLSKLRIFRHWVPAA,< -0.25
3,ADGGTEINVRRGVCR,< -0.25
4,ADGHSAPLGRPGDRFFGVMV,< -0.25
5,ADIAPSCCRGFIDL,< -0.25
6,ADIGCKVVFLMAASEEHVFP,< -0.25
7,ADIQTVSEMLDRKVNAANRK,< -0.25
8,ADLLSDGDTKSGRVAVRPDS,< -0.25
9,ADRFGFNLTQLKSVSPSRLS,< -0.25
10,ADRLGPCNDPRRNLCRCGIP,< -0.25
11,ADSGACHLPPKQVEALAGHK,< -0.25
12,ADSMGLRVCVKL,< -0.25
13,ADSSTE,< -0.25
14,ADTTNPFSFPRLVVGTEGTG,< -0.25
15,ADVATSQIGWVSLKPWIARA,< -0.25
16,ADVGCGHGRYMGPLWVRDTQ,< -0.25
17,ADVNCYPYWSLGST,-0.229
18,ADVVIPTRQNSEK,< -0.25
19,ADVVSSRNQRKRPPQNISNT,< -0.25
20,AEAVHFSVSHYEESLFFVGR,-0.246
21,AEDSYSHTDGKVKPGTWGVV,< -0.25
22,AEECYIGRAREPQWVLSQAL,< -0.25
23,AEFGLNEGTADQ,< -0.25
24,AEFVASRHLNRRARAGA,< -0.25

row,Substance,growth estimate
1,AEGADYFGRR,< -0.25
2,AEKALMGQVMSFTEDEAGPK,< -0.25
3,AEKGRISGIALKTEICFGLL,-0.248
4,AELEGLFEPGSHNFHVSERN,< -0.25
5,AELSPSIIAVTKLRSHSSST,< -0.25
6,AEQFWVRLSNTSI,< -0.25
7,AERAIMGHSTTYTMSGAPTR,< -0.25
8,AERLMLHGCGQCLKASWGLA,< -0.25
9,AERTRKVIRASRTDGRRKRE,< -0.25
10,AESCYVTLGSLVPSGAPVSK,< -0.25
11,AESFYGGGYGK,< -0.25
12,AESQESREHTEDVRIGLQPF,< -0.25
13,AEVLFGFSAIGMTGSTDNSD,< -0.25
14,AEWCGRRD,< -0.25
15,AFA,< -0.25
16,AFDSGMW,< -0.25
17,AFILMRGHKKFPSCADVRSE,< -0.25
18,AFISLSVVVTQSDPCVSAHR,< -0.25
19,AFNFPRRGLALNLLLVSPTR,< -0.25
20,AFPAIEPQR,< -0.25
21,AFPRRSRNAQASASGYLIGS,< -0.25
22,AFPVIVPPASIGALCLAGTA,< -0.25
23,AFQR,< -0.25
24,AFQVVRCAGPNTYQAYTLPA,< -0.253

row,Substance,growth estimate
1,AFRRVRQNPSGLMAVSKYIR,< -0.25
2,AFSPQRPSVLISYRVRGVRR,< -0.25
3,AFSSCAGLKGHAVCIIS,< -0.25
4,AFTSSCALR,< -0.25
5,AFVNFSSSPRNRWTGRSTCS,< -0.25
6,AFYEG,< -0.25
7,AGAAPNGREPFPVHVSKYPT,< -0.25
8,AGADRCQDCIGYYVSRD,< -0.25
9,AGAHR,< -0.25
10,AGAR,< -0.25
11,AGASEYHGKP,< -0.25
12,AGDG,< -0.25
13,AGEAVNISRGDRCGTRRSNR,< -0.25
14,AGEIYASDKRALSSNPLLGR,-0.241
15,AGFGSVLMVMSGGMIHRDTR,< -0.25
16,AGFLGNMALSIDTSLPRGKP,< -0.25
17,AGFSSEMVQAGYVAVAWPRR,< -0.25
18,AGGILL,< -0.25
19,AGGKGRWSVVHQPYTLLEGG,< -0.25
20,AGGPLLSARSNLLLSANVGL,< -0.25
21,AGGR,< -0.25
22,AGHAL,< -0.25
23,AGHMRGFQVLRRTYGPTRQL,< -0.25
24,AGIPNPSFFPAKARCGASCQ,< -0.25

row,Substance,growth estimate
1,AGISRHGITYTRAPIRHCKD,< -0.25
2,AGKASDHDPVQGGAPWVPS,< -0.25
3,AGKGDTIALGTLVIS,< -0.25
4,AGLART,< -0.25
5,AGLESVRLFLASPGSIITLN,< -0.25
6,AGLGHLRGNPYMVEEVGSPR,< -0.25
7,AGLHAVDSSPR,< -0.25
8,AGLPTPISTPLGTRRSRALL,< -0.25
9,AGLRVQGPVREVNSGD,< -0.25
10,AGLSVRGH,< -0.25
11,AGMNNDLESALYATGQV,< -0.25
12,AGNDY,< -0.25
13,AGNPGALEVRKCWGGGIVVP,< -0.25
14,AGNQLTAFGEGALEIDMTCY,< -0.25
15,AGNRSFTGLRQPRMDVALWV,< -0.25
16,AGPGVVRWSWHSGKRFSHAT,< -0.25
17,AGQTAGGSFRVKMGCDIAAR,< -0.25
18,AGQTKPL,< -0.25
19,AGRCV,< -0.25
20,AGRHA,< -0.25
21,AGRMMRNYRFVAPRRLSRVS,< -0.25
22,AGRSQ,< -0.25
23,AGSFTVPVLFYRPDVLPTPI,< -0.25
24,AGSK,< -0.25

row,Substance,growth estimate
1,AGSKVLGIA,< -0.25
2,AGSPI,< -0.25
3,AGTEPGNTISSRALGPDGHS,< -0.25
4,AGTRNGPGRQVDMQGCR,< -0.25
5,AGVEPCTVPELGKCSRVTRE,< -0.25
6,AGVHLSRNLMLGPLRVKSE,< -0.25
7,AGVPEELLGDRNRGSFRGAC,< -0.25
8,AGVPGRMSYTSKVVRDVEVA,< -0.25
9,AGVRS,< -0.25
10,AGWFGRVCAYRPTRCVRNDP,< -0.25
11,AHEKSAENAL,< -0.25
12,AHGGEWEFAGSTRVLMLTFI,< -0.25
13,AHGPRQASQVLCPGEHSGRG,< -0.25
14,AHICQMVAGWKSILSIVTYM,< -0.25
15,AHKLEAAGILPRFLSTLG,< -0.25
16,AHLFGSLER,< -0.25
17,AHNGVCMSATRAGDERHTRG,< -0.25
18,AHRAKSVFL,< -0.25
19,AHRERLTEVRA,< -0.25
20,AHSREGVPES,< -0.25
21,AHVGFPLD,< -0.25
22,AHVRIHASKLGVTSN,< -0.25
23,AHYDGSFFTACVTSAKS,< -0.25
24,AIAVWSLDLYPLRLRSCAIV,< -0.25

row,Substance,growth estimate
1,AIDQTSWGEVS,< -0.25
2,AIEIWHFGSASGGPPRGGTA,0.0022
3,AIEVTEETARFRVTLRHKVP,< -0.25
4,AIFFTLC,< -0.25
5,AIFGRLRTWVQPPETRLSVR,< -0.25
6,AIGRDPGQHRKVRMAPR,< -0.25
7,AIIQGDWASNAAIRWPRPGL,< -0.25
8,AIISRGGDRHR,< -0.25
9,AINPVPGSNNQPVATLGSRP,< -0.25
10,AIPPS,< -0.25
11,AIPSRKWPGLGSRIDVRWRL,< -0.25
12,AIQEEVSQDS,< -0.25
13,AIQGLGLFVLRLHFYSVSTR,< -0.25
14,AIRHDLVCVLEKVLVLDRCR,< -0.25
15,AISQPGIYTHSRNTRSVPLG,< -0.25
16,AISVHSDNNCQEKCLHLRSI,< -0.25
17,AITHISWSLVCRIPYSGTLR,< -0.25
18,AITNPCPIS,< -0.25
19,AIVTMLSRAVLIARRIWLML,< -0.25

# Source: the supplement of paper PMC5949888
